In this data set the target is Su(H) S269D (Drosophila melanogaster) (UniProt P28159). Nature of the data set: EMSA. The conditions noted are these: very weak binding; EMSA: 10 mM Tris-HCl pH 7.5, 50 mM NaCl, 1 mM EDTA, 0.0275 ug/ul salmon sperm DNA; protein translated in vitro; label: radiolabelled (EMSA), unlabelled as competitor. A general note: In EMSA bound probe runs differently from free probe, usually more slowly.

By UniProt entry, the sequences of proteins in these tests, tags left out.
UniProt P28159, whole entry S269D: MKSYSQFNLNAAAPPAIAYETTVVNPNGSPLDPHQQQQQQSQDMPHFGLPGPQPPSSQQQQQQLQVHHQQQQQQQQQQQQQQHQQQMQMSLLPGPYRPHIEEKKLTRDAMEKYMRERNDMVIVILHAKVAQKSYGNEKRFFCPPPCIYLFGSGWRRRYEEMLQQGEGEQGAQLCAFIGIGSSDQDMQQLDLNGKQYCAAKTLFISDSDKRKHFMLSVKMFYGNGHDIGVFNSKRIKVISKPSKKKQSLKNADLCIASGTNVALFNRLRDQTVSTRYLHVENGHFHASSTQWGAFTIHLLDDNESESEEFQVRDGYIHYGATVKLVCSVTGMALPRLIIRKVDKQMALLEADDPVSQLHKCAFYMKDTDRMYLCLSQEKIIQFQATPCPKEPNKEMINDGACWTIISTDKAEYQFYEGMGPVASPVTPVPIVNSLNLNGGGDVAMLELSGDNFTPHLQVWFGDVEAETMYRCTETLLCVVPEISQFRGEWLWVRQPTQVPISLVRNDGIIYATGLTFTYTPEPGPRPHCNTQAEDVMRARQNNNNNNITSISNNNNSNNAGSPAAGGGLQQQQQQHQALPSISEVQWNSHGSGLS

The source of these data is article PMC5605572.

For at least one entry, the source does not settle the construct or the ends of the probe. A weaker result is weaker than the reference pair of the same experiment.

With “TTGGGTGGCTCGTGGCGTGGGAACCGAGCTGAAAG / GGTTCTTTCAGCTCGGTTCCCACGCCACGAGCCAC [E(spl)m8-S1]”, the binding result was “binds more weakly”.
